In PubChem BioAssay AID1487 (National Center for Advancing Translational Sciences (NCATS), 2009):
The list shows a part of the results. These are further read-outs of the screen, such as a control signal, another cell line or another target. No call is given for them. The list favours compounds with an active or inconclusive main result. Potencies come from curve fits of mixed quality, noted in brackets.

Test: qHTS Assay for Modulators of Lamin A Splicing
Conditions: HeLa LMNA splicing GFP/RFP minigene ratio, 48 h
Text: NCGC Assay Overview: Hutchinson-Gilford Progeria Syndrome (HGPS) is a pediatric premature aging disease caused by a spontaneous mutation in the lamin A/C (LMNA) gene. The mutation activates a cryptic splice site in the LMNA pre-mRNA which results in production of a pre-lamin A protein that cannot be processed properly. The mutant protein accumulates in the nucleus and negatively affects numerous cellular functions. Correction of the splicing defect in HGPS patient cells using a targeted oligonucleotide (exo11) leads to reversal of the cellular disease phenotypes. To identify small molecule modulators of aberrant LMNA splicing, a homogenous assay was constructed in HeLa cells that used a GFP containing minigene to report on correction of aberrant splicing in lamin A and a RFP (DsRed2) to report on cell viability, uniformity and nonspecific effects on the assay signal. This assay was adapted to laser-scanning microplate cytometry (Acumen, TTP Labtech) where miniaturization of the assay to a 1,536-well plate format was possible. References: Bowen, W. P.; Wylie, P. G. Application of Laser-Scanning Fluorescence Microplate Cytometry in High Content Screening. Assay Drug Dev Technol 2006;4:209-221. Scaffidi P, Misteli T. Reversal of the cellular phenotype in the premature aging disease Hutchinson-Gilford progeria syndrome. Nat.
NCGC Assay Protocol Summary: Reagents/Controls: Stable clones expressing DsRed2 and lamin A-EGFP were generated by Cell and Molecular Technologies in S3 HeLa cells. HeLa cells were prepared for the assay when they were 70-90% confluent. The cells were counted and resuspended in Opti-MEM I (no phenol red; Gibco), 2% FBS, 1% penicillin/ streptomycin (Gibco) at concentration of 120 cells/uL concentration. The suspension was passed through a Falcon basket filter with pore size 40um (Beckton Dickson). Control titrations: column […] 1536-well plate contained a sixteen point titration (1:2 dilutions) in duplicate of ancitabine (Sigma: A8598) beginning at 40 uM final concentration. Column 2 contained a sixteen point titration (1:2 dilutions) of cycloheximide beginning at 1.4 mM final concentration. Column 3 contained ancitabine at 40 uM and column 4 contained was the vehicle control (0.5% DMSO final concentration). Assay Steps: 5 uL of HeLa cells were plated in Aurora LoBase black clear bottom (cyclic-olefin polymer) 1536-well plates at a final density of 600 cells/well. Controls and library compounds were added with a 1536-well pin array using the Kalypsys pin-tool. The plates were then incubated for 48 hrs in a cell-culture incubator (37 °C; 5% CO2, 98% humidity). Following incubation the plates were read on the Acumen Explorer using the 488 nm laser. Data was collected on objects between 10 and 100 um in size. Cell objects were defined by a 15 um width x 10 um depth filter. The ratio of the total object intensity in PMT1 (500-530 nm emission; GFP) over PMT3 (575-640 nm emission; RFP) was calculated for analysis. Keywords: NIH Roadmap, MLSCN, MLI, MLSMR, qHTS, NCGC, lamin A, Progeria, RNA splicing.

[1] = measured here: RFP viability control channel
[2] = measured here: GFP splicing reporter channel

Row | SMILES | AC50 [1] | AC50 [2]
1 | COc1ccc(C)cc1Nc1nnc(C)c(=O)[nH]1 | 1.78 µM [rising, single point] | –
2 | O=S(Cc1ccc(Br)cc1)Cc1nnc(SCc2ccc(Br)cc2)n1-c1ccccc1 (stereo unspecified) | 2.82 µM [rising, full curve] | 1.41 µM [rising, full curve, poor fit]
3 | COc1cc([N+](=O)[O-])ccc1Nc1nc(C)cc(C)n1 | 0.355 µM [rising, partial curve, poor fit] | 1.26 µM [rising, partial curve]
4 | Cc1nc(NCCc2ccccc2)c(C#N)c(C)c1[N+](=O)[O-] | 35.5 µM [falling, single point] | –
5 | O=C(Nc1nc2ccccc2n1CCN1CCOCC1)c1cn(-c2ccccc2)nc1-c1ccccc1 | 35.5 µM [rising, single point] | 35.5 µM [rising, single point]
6 | COc1ccc(OC)c(C(=O)COC(=O)c2cccnc2Cl)c1 | 0.1 µM [rising, partial curve] | –
7 | Cc1cc(C)n(CC(O)Cn2c3ccc(Br)cc3c3cc(Br)ccc32)c(=O)n1 (stereo unspecified) | 22.4 µM [falling, single point] | 35.5 µM [falling, single point]
8 | O=C(NC1CCCCC1)c1ccc2c(=O)n(CC3CCCO3)c(=O)[nH]c2c1 (stereo unspecified) | 12.6 µM [rising, single point] | 10 µM [rising, partial curve, poor fit]
9 | Clc1ccc2nc(N3CCNCC3)nc(-c3ccccc3)c2c1 | 35.5 µM [falling, single point] | 25.1 µM [falling, single point]
10 | CCOc1cccc2cc(C(=O)NCCC3=CCCCC3)c(=O)oc12 | – | 5.62 µM [rising, partial curve, poor fit]
11 | COc1cccc(N2CC(NC(=O)c3ccco3)CC2=O)c1 (stereo unspecified) | 0.00316 µM [falling, full curve, poor fit] | 2.24 µM [falling, full curve, poor fit]
12 | CCOC(=O)C1=C(O)/C(=C/c2ccccn2)SC1=Nc1ccc(Cl)cc1 | – | 12.6 µM [falling, partial curve, poor fit]
13 | CCOc1ccccc1NC(=O)Cn1cnc2c(cnn2-c2ccc(C)c(C)c2)c1=O | – | 0.794 µM [rising, single point]
14 | CCOC(=O)/C=C1\NC(C)(C)Cc2cc(OC)c(OC)cc21 | 0.0316 µM [falling, full curve] | 0.02 µM [falling, full curve, poor fit]
15 | CCn1c(=O)[nH]c2cc(Cl)c(Cl)cc21 | 0.0891 µM [falling, full curve] | 0.794 µM [falling, full curve]
16 | CCCCCCOc1ccc(C2C(=O)N(C3CCCCC3)CC(=O)N2CCC)cc1 (stereo unspecified) | – | 0.0398 µM [falling, full curve, poor fit]
17 | Cc1ccc(NC(=O)C(C)c2cccc(C(=O)c3ccccc3)c2)cc1 (stereo unspecified) | 8.91 µM [rising, partial curve] | 2.82 µM [rising, full curve]
18 | CCOc1[nH]n(-c2ccccc2)c(=O)c1C=Nc1ccc(C)cc1 | 0.158 µM [falling, single point] | –
19 | CCOC(=O)Nc1ccc(S(=O)(=O)NC2CCCCC2)cc1 | 35.5 µM [rising, single point] | –

Row | SMILES | AC50 [1] | AC50 [2]
20 | O=C(Nc1ccc(N2CCOCC2)cc1)c1cc2c(s1)CCCCC2 | 5.01 µM [rising, full curve, poor fit] | –
21 | Cc1cccc(N2CCN(C(=O)Nc3cn(CC(C)C)c(=O)c4ccccc34)CC2)c1C | – | 12.6 µM [falling, single point]
22 | COc1ccccc1Cc1nc2ccccc2nc1SCC(=O)N(C)c1ccc(F)cc1 | 12.6 µM [rising, single point] | –
23 | COc1ccc(/C=C/C(=O)NC(=S)NNC(=O)c2ccco2)cc1 | 8.91 µM [rising, partial curve] | –
24 | COc1ccc(NC(=O)CSc2nnc(NC(=O)Nc3ccc(OC)cc3)s2)cc1 | 5.62 µM [rising, single point] | –
25 | Cc1cccc(N2CCN(C(=O)c3cccc(S(=O)(=O)N4CCc5ccccc5C4)c3)CC2C)c1 (stereo unspecified) | 10 µM [rising, partial curve] | 12.6 µM [rising, partial curve, poor fit]
26 | S=C(NCCc1ccccc1)NC1CC1 | – | 0.355 µM [rising, single point]
27 | O=C(Nc1cccc(S(=O)(=O)N2CCOCC2)c1)[C@@H]1CCCN1S(=O)(=O)c1ccc(Cl)cc1 | 11.2 µM [rising, single point] | –
28 | COc1cccc(Nc2sc(C(=O)c3ccc(F)cc3)c(N)c2C(=O)NCc2ccc(Cl)cc2)c1 | 20 µM [rising, single point] | 31.6 µM [rising, single point]
29 | CCOC(=O)c1c(-c2ccccc2)n(C)c2ccc(O)cc12 | 20 µM [rising, single point] | –
30 | COc1ccc(-c2ccc(NS(=O)(=O)c3ccc(C(C)=O)cc3)cc2)nn1 | – | 0.00631 µM [falling, full curve, poor fit]
31 | O=C(Cc1ccccc1)Nn1c(O)c(/C=C2\C=Nc3ccccc32)sc1=S | 25.1 µM [rising, single point] | –
32 | COc1ccc(C(=O)NC(=S)NNC(=O)c2cnccn2)cc1OC | 5.62 µM [rising, single point] | –
33 | O=C(CSc1ncn[nH]1)N1N=C(c2ccc(Cl)cc2)CC1c1ccco1 (stereo unspecified) | – | 20 µM [falling, partial curve, poor fit]
34 | O=S(=O)(NCCCCCNS(=O)(=O)c1ccccc1)c1ccccc1 | 25.1 µM [falling, partial curve, poor fit] | 0.00316 µM [falling, full curve, poor fit]
35 | CC(=O)c1ccc(Sc2ccccc2N)c([N+](=O)[O-])c1 | – | 0.0447 µM [rising, full curve, poor fit]
36 | CC(C)N(C(=O)CSc1nnc(-c2cc3ccccc3cc2O)n1Cc1ccco1)C(C)C | 15.8 µM [rising, partial curve] | –
37 | CCOC(=O)c1[nH]ncc1CN1CCCC(C(=O)c2cccc3ccccc23)C1 (stereo unspecified) | 7.94 µM [falling, partial curve, poor fit] | 35.5 µM [falling, single point]
38 | CC(C)C(NC(=S)Nc1ccccc1)C(=O)O (stereo unspecified) | 0.00447 µM [falling, full curve, poor fit] | –

In the list so far, 2 contain bromine:
Row | SMILES | AC50 [1] | AC50 [2]
2 | O=S(Cc1ccc(Br)cc1)Cc1nnc(SCc2ccc(Br)cc2)n1-c1ccccc1 (stereo unspecified) | 2.82 µM [rising, full curve] | 1.41 µM [rising, full curve, poor fit]
7 | Cc1cc(C)n(CC(O)Cn2c3ccc(Br)cc3c3cc(Br)ccc32)c(=O)n1 (stereo unspecified) | 22.4 µM [falling, single point] | 35.5 µM [falling, single point]

Continuation:

Row | SMILES | AC50 [1] | AC50 [2]
39 | CCS(=O)(=O)c1nnnn1-c1ccccc1S(C)(=O)=O | 17.8 µM [rising, single point] | –
40 | Cc1ccc(C)c(N2CCN(C(=O)c3ccc(NC(=O)c4nsc5ccccc45)cc3)CC2)c1 | – | 0.891 µM [falling, full curve, poor fit]
41 | Oc1c(CN2CCCCC2)cc(Br)c2cccnc12 | 0.01 µM [falling, full curve] | 0.00501 µM [falling, full curve, poor fit]
42 | COc1ccccc1CNC(=S)NC1CCCCC1 | 14.1 µM [rising, partial curve] | –
43 | Cc1ccc(OCCC(=O)Nc2ccc(F)c(F)c2)cc1 | – | 1.41 µM [rising, partial curve, poor fit]
44 | CCCOc1ccc(/C=N/NC(=O)CSCc2ccc([N+](=O)[O-])cc2)cc1OCC | 11.2 µM [rising, partial curve] | –
45 | CCc1ccc(/C=C2\SC(=S)N(CCC(=O)N3CCN(C)CC3)C2=O)cc1 | 8.91 µM [rising, partial curve, poor fit] | 7.08 µM [falling, full curve, poor fit]
46 | CC(C)n1cc(-c2nc(C(=O)NN)cs2)c(=O)n(Cc2ccccc2)c1=O | 35.5 µM [falling, single point] | 35.5 µM [falling, single point]
47 | Oc1ccccc1-c1cc(C(F)(F)F)nc(-c2ccccc2)n1 | 5.01 µM [falling, full curve, poor fit] | –
48 | COc1ccc(C=O)cc1COc1ccc(C)cc1[N+](=O)[O-] | 20 µM [falling, single point] | 25.1 µM [falling, single point]
49 | C=CCOc1c(Cl)cc(CNc2ccc(C)c(Cl)c2)cc1OC | 11.2 µM [falling, partial curve] | 8.91 µM [falling, partial curve]
50 | CCC(OC(=O)c1cc2sccc2n1C)C(=O)NCC1CCCO1 (stereo unspecified) | 22.4 µM [rising, partial curve] | 12.6 µM [rising, partial curve]
51 | C/C(=C\C(=O)c1ccc(C)o1)Nc1ccc(C(=O)O)cc1C | 0.447 µM [rising, partial curve, poor fit] | –
52 | Cc1nc(C)c(-c2ccc(SCC(=O)Nc3ccc(Br)cc3)nn2)s1 | – | 0.112 µM [falling, full curve, poor fit]
53 | CCCCCCC1CC(CC(=O)Nc2ccc([N+](=O)[O-])cc2)C(=O)O1 (stereo unspecified) | 35.5 µM [rising, single point] | –
54 | CCn1nc(C(=O)Nc2nc3ccccc3[nH]2)c2ccccc2c1=O | – | 6.31 µM [rising, partial curve]
55 | Cc1sc2nc(CC(N)=O)[nH]c(=O)c2c1-c1ccccc1 | 0.00447 µM [falling, full curve, poor fit] | –
56 | C/C(=N\NC(=O)c1ccccc1O)c1ccc(Br)s1 | 11.2 µM [rising, single point] | –
